Source: the supplement of paper PMC10849652
The other results are listed elsewhere or left out. Residues, ends and D or L forms follow the SMILES beside them. *: point of attachment. Cbz = O=C(OCc1ccccc1)*

The chains behind the UniProt entries cited, without tags or fusion partners. Where a name states a change or a piece, a line headed by the entry shows the natural chain unless it says otherwise.
UniProt Q99543: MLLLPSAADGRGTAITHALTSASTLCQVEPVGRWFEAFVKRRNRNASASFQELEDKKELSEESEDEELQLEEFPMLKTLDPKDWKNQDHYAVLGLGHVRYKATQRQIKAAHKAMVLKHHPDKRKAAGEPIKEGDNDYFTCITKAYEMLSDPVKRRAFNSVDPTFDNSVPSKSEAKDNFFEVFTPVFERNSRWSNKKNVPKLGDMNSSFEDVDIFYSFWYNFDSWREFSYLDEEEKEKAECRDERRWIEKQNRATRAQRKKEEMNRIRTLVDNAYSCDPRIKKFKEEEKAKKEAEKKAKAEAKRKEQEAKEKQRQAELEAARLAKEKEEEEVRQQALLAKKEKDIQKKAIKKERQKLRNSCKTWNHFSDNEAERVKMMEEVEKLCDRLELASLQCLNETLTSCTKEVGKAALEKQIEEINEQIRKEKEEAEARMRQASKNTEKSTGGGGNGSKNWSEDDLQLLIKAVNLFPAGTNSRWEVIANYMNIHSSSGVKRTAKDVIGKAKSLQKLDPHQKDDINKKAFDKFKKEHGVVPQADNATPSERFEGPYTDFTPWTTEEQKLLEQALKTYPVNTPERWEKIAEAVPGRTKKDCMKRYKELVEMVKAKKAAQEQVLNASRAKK
UniProt P42126: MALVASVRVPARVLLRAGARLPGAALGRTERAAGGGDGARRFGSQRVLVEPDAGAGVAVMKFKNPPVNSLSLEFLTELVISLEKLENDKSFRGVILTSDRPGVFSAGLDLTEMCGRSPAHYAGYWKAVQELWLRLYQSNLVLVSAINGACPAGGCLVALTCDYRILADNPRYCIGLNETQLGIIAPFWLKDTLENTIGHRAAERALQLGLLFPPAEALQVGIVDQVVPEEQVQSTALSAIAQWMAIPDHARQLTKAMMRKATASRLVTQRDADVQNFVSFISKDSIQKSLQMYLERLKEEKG
UniProt Q8WXX5: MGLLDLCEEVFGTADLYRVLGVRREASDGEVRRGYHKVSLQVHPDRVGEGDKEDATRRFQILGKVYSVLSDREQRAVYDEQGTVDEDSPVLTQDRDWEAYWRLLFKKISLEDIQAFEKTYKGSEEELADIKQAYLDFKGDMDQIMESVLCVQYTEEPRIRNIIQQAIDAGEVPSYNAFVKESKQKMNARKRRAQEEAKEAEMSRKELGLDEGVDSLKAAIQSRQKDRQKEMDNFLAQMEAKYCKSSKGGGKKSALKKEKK
UniProt O75061: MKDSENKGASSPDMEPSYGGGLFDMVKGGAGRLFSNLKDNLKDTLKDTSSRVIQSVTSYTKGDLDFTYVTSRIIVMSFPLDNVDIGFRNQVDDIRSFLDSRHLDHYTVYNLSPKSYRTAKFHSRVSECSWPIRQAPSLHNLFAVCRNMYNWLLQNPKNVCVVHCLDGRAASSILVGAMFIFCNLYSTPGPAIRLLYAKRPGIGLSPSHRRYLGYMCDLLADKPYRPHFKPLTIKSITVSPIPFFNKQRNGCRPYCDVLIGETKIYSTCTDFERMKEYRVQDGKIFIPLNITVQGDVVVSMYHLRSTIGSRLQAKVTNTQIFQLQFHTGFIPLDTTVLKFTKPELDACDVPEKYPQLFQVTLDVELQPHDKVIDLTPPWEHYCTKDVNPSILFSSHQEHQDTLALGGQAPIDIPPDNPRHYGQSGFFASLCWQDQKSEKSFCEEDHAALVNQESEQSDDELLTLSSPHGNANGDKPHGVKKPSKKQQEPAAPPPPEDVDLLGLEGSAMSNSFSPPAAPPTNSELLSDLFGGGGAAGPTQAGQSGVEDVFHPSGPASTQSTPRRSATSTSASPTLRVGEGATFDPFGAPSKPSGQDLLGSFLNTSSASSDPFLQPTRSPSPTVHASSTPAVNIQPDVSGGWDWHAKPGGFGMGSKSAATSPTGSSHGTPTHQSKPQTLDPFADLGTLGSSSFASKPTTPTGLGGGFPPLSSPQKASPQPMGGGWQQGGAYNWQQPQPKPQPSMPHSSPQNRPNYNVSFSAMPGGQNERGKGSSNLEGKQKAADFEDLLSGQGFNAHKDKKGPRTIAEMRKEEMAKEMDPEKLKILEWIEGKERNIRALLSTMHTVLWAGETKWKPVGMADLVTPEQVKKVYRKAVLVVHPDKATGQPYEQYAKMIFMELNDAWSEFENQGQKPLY
UniProt Q96G46: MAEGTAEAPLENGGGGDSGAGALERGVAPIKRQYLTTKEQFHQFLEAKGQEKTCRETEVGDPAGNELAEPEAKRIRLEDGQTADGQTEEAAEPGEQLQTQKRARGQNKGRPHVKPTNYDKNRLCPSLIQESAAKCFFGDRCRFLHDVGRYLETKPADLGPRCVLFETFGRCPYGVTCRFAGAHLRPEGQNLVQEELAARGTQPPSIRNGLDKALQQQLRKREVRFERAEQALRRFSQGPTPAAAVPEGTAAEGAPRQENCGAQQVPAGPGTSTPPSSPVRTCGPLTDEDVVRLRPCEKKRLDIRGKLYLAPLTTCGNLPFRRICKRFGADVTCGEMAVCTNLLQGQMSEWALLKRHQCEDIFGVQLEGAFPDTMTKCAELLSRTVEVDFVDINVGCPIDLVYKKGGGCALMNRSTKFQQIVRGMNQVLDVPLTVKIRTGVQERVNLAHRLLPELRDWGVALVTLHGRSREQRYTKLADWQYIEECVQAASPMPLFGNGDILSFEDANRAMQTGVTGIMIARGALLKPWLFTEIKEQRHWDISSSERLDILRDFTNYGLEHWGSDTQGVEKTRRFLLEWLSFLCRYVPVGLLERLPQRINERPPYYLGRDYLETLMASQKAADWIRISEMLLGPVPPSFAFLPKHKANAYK
UniProt O43237, whole entry, looked up: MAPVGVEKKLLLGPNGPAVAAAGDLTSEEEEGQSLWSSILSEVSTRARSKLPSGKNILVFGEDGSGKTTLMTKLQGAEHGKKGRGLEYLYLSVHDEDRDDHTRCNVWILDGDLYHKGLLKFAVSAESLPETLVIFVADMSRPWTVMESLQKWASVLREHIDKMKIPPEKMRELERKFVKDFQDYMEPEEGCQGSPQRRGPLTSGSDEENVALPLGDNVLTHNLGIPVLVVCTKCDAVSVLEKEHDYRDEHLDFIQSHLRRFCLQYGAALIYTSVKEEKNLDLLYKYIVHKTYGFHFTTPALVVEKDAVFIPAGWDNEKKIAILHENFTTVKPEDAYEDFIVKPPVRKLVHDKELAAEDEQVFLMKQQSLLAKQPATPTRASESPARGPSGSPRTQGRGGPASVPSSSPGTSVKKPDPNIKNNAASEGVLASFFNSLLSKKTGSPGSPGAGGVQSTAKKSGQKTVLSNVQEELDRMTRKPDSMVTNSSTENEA
UniProt P23919: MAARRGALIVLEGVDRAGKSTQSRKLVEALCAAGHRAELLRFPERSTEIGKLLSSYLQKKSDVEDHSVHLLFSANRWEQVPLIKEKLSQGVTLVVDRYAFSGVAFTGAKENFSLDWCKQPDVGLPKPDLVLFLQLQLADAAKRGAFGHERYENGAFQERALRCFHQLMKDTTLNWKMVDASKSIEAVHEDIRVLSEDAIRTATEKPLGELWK
UniProt Q9NXW2: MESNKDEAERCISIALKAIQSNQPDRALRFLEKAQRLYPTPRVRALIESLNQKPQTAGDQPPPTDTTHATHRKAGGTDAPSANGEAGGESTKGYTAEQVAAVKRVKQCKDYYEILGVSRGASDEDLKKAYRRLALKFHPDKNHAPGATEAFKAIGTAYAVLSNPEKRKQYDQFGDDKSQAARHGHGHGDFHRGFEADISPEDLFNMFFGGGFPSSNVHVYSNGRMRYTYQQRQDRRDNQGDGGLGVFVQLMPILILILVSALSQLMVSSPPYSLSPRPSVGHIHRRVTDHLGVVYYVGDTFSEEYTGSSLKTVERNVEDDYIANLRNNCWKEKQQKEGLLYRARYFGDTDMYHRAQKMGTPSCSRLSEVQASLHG

Assays:
Assay in all cases: log2 fold change, soluble protein after heating vs DMSO (PISA); higher = thermal stabilisation; K562 cells, 10 uM, 30 min; active = over 0.2 and 3.5 SD of the protein, either way, in both replicates (recomputed)
[1] = compound: C1COCCN1CCN2C3=CC=CC=C3N=C2NC(=O)C4=CC(=CC=C4)[N+](=O)[O-] [IRAK-1-4 Inhibitor I]
In short: (§1)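 K562 cells at 2×10^6 cells/mL were exposed to 10 μM compound for 30 min, then aliquots were heated for 3 min across 48°C-58°C, pooled, and extracted in PBS containing 0.5% NP-40 at 4°C. The supernatant after 21,000xg for 90 min was taken as soluble protein and measured by TMTpro 16plex LC-MS/MS with channel sums equalised. Thermal stability is reported relative to control samples, with values from duplicates. Fold changes are given on a log2 scale.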

[2] = compound: C=CC(=O)N1CCC[C@@H](n2nc(-c3ccc(Oc4ccccc4)cc3)c3c(N)ncnc32)C1 [ibrutinib]
In short: as §1

[3] = compound: CC(=O)c1cnc2ccc(-c3cc(Cl)c(O)c(Cl)c3)nc2c1N[C@H]1CC[C@H](CN(C)C)CC1
In short: as §1

[4] = compound: CC(C)(C)Cn1c(N)nc2ccc(-c3[nH]c(C(C)(C)C)nc3-c3ccc(F)cc3)nc21 [ralimetinib]
In short: as §1

[5] = compound: CC(C)(O)CC(=O)NCCn1ccc2ncnc(Nc3ccc(Oc4cccc(C(F)(F)F)c4)c(Cl)c3)c21
In short: as §1

[6] = compound: CC(C)C1=C2N=C(C=C(N2N=C1)NCC3=CC=CC=C3)NCCCCCCN
In short: as §1

[7] = compound: CC(C)C[C@@H](C=O)NC(=O)[C@H](CC(C)C)NC(=O)[C@H](CC(C)C)NC(=O)OCc1ccccc1
In short: as §1

[8] = compound: CC(C)N(C[C@H]1O[C@@H](n2cnc3c(N)ncnc32)[C@H](O)[C@@H]1O)[C@H]1C[C@@H](CCc2nc3cc(C(C)(C)C)ccc3[nH]2)C1 [pinometostat]
In short: as §1

[9] = compound: CC1=C(C(CC(=O)N1)C2=CC=C(C=C2)C(F)(F)F)C(=O)NC3=C(C=C4C(=C3)C=NN4)F
In short: as §1

[10] = compound: CC1=C(C2=C(C=C1)C(=O)C3=CC=CC=C3N2CCCN)C
In short: as §1

[11] = compound: CC1=C(C=C(C=C1)NC(=O)C2=CC(=CC=C2)C(C)(C)C#N)NC3=CC4=C(C=C3)N=CN(C4=O)C
In short: as §1

[12] = compound: CC1=C(C=C(C=C1)NC(=O)C2=CC(=CC=C2)N(C)C)NC(=O)C3=CC=C(C=C3)O
In short: as §1

[13] = compound: CC1=CC=C(C=C1)SC2=C3C=C(SC3=CN=C2)C(=O)N
In short: as §1

[14] = compound: CC1=NC(=CC=C1)C2=C(N=C(N2)C(C)(C)C)C3=CC4=NC=CN=C4C=C3
In short: as §1

[15] = compound: CCCCN(Cc1ccc(C(=O)NO)cc1)C(=O)Nc1ccccc1 [Nexturastat A]
In short: as §1

[16] = compound: CCCS(=O)(=O)Nc1ccc(F)c(C(=O)c2c[nH]c3ncc(-c4ccc(Cl)cc4)cc23)c1F [vemurafenib]
In short: as §1

[17] = compound: CCCS(=O)(=O)Nc1ccc(F)c(C(=O)c2c[nH]c3ncc(Cl)cc23)c1F
In short: as §1

[18] = compound: CCCc1cc(C)[nH]c(=O)c1CNC(=O)c1cc(-c2ccnc(N3CCN(C)CC3)c2)cc2c1cnn2C(C)C
In short: as §1

[19] = compound: CCN(CC)Cc1ccc2cc(COC(=O)Nc3ccc(C(=O)NO)cc3)ccc2c1 [givinostat]
In short: as §1

[20] = compound: CCN(CCCOc1ccc2c(Nc3cc(CC(=O)Nc4cccc(F)c4)[nH]n3)ncnc2c1)CCOP(=O)(O)O [barasertib]
In short: as §1

Row | Target | log2 fold change [1] | log2 fold change [2] | log2 fold change [3] | log2 fold change [4] | log2 fold change [5] | log2 fold change [6] | log2 fold change [7] | log2 fold change [8] | log2 fold change [9] | log2 fold change [10] | log2 fold change [11] | log2 fold change [12] | log2 fold change [13] | log2 fold change [14] | log2 fold change [15] | log2 fold change [16] | log2 fold change [17] | log2 fold change [18] | log2 fold change [19] | log2 fold change [20]
1 | DNAJC2 (UniProt Q99543) | inactive: -0.078 | inactive: -0.046 | inactive: -0.047 | inactive: 0.182 | inactive: -0.003 | inactive: -0.31 | inactive: 0.073 | inactive: 0.253 | inactive: 0.034 | inactive: -0.091 | inactive: -0.029 | inactive: 0.011 | inactive: 0.03 | inactive: 0.003 | inactive: 0.197 | inactive: 0.051 | inactive: 0.047 | inactive: 0.094 | inactive: 0.158 | inactive: 0.131
2 | ECI1 (UniProt P42126) | inactive: 0.007 | inactive: 0.035 | inactive: -0.023 | inactive: -0.064 | inactive: 0.002 | inactive: 0.026 | inactive: -0.025 | inactive: -0.043 | inactive: 0.023 | inactive: 0.097 | inactive: 0 | inactive: 0.024 | inactive: 0.008 | inactive: 0.005 | inactive: -0.064 | inactive: -0.027 | inactive: 0.001 | inactive: -0.038 | inactive: -0.074 | inactive: -0.004
3 | DNAJC9 (UniProt Q8WXX5) | inactive: 0.009 | inactive: 0.008 | inactive: -0.017 | inactive: -0.035 | inactive: 0 | inactive: -0.032 | inactive: 0.022 | inactive: -0.051 | inactive: 0.035 | inactive: 0.007 | inactive: -0.01 | inactive: 0.009 | inactive: 0.003 | inactive: 0.006 | inactive: -0.021 | inactive: 0.001 | inactive: -0.002 | inactive: 0.018 | inactive: 0.017 | inactive: -0.014
4 | DNAJC6 isoform 2 (UniProt O75061) | inactive: 0.03 | inactive: -0.076 | inactive: -0.139 | inactive: -0.011 | inactive: 0.028 | inactive: 0.049 | inactive: 0.058 | inactive: -0.017 | inactive: 0.042 | inactive: 0.029 | inactive: 0.021 | inactive: 0.004 | inactive: 0 | inactive: 0.017 | inactive: -0.028 | inactive: 0.026 | inactive: 0.079 | inactive: -0.021 | inactive: -0.021 | inactive: 0.167
5 | DUS3L (UniProt Q96G46) | inactive: 0 | inactive: 0.008 | inactive: -0.031 | inactive: 0.042 | inactive: -0.043 | inactive: 0.062 | inactive: -0.055 | inactive: -0.022 |  | inactive: -0.005 | inactive: 0.064 | inactive: -0.015 | inactive: -0.01 | inactive: 0.017 | inactive: -0.023 | inactive: 0.042 | inactive: 0.031 | inactive: 0.036 | inactive: -0.004 | inactive: 0.021
6 | DYNC1LI2 (UniProt O43237) | inactive: 0.089 | inactive: 0.083 | inactive: 0.099 | inactive: 0.124 | inactive: 0.03 | inactive: -0.067 | inactive: 0.07 | inactive: 0.146 |  | inactive: 0.094 | inactive: 0.013 | inactive: -0.093 | inactive: -0.049 | inactive: -0.193 | active: 0.646 | inactive: 0.001 | inactive: -0.027 | inactive: 0.076 | inactive: 0.017 | inactive: 0.05
7 | DTYMK (UniProt P23919) | inactive: 0.076 | inactive: -0.003 | inactive: -0.02 | inactive: -0.056 | inactive: -0.178 | inactive: -0.029 | inactive: -0.013 | inactive: 0.039 |  | inactive: 0.084 | inactive: -0.001 | inactive: 0.05 | inactive: 0 | inactive: 0.015 | inactive: -0.009 | inactive: -0.017 | inactive: -0.069 | inactive: -0.1 | inactive: -0.007 | inactive: -0.011
8 | DNAJB12 (UniProt Q9NXW2) | inactive: -0.026 | inactive: 0.004 | inactive: -0.013 | active: -0.767 | inactive: -0.032 | inactive: -0.012 | inactive: 0.076 | inactive: 0.021 |  | inactive: 0.022 | inactive: -0.071 | inactive: -0.017 | inactive: -0.002 | inactive: 0.017 | inactive: 0.044 | inactive: 0.008 | inactive: 0.008 | inactive: -0.069 | inactive: 0.06 | inactive: -0.001
